For some of these results: Negatives hold for the conditions tested. Construct, isoform or probe ends are uncertain for at least one entry.

Chains of the proteins cited; added tags and fusions are not shown. Chains listed by the source or under a name are the forms on record and can include a tag or linker. Residues count along the entry.
UniProt P01127, 82-190: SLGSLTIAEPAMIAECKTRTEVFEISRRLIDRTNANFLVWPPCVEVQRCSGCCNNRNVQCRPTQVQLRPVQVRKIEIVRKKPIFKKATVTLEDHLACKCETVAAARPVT
VEGF-121 (Homo sapiens), one chain, as listed by the source: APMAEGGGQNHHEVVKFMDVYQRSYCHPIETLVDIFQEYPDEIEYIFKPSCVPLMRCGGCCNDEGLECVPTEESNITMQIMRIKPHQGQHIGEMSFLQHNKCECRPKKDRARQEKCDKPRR

The target in data set [1] is PDGF-BB (platelet-derived growth factor BB) (Homo sapiens) (UniProt P01127). The data set is described as follows: filter binding. Conditions: purified recombinant protein, single-stranded DNA.
A further data set relates to VEGF-121 (Homo sapiens). The data set is described as follows: filter binding. Particulars: purified recombinant protein, protein details: R&D Systems, single-stranded DNA; for Kd: NB up to 100 nM; for binding result: NB.

The Kd is the concentration at which binding is half-saturated. For CGACAGCATGTATGCACATCT [5169-4_146], in data set [1] (NapdU at 9,11,13,19, 2'-OMe at C1,C4,G6,C7,G14,C15,A16,C17,A18,C20 and 2'-OMe-NapU21, SB18T, 37 C, later tables give 15 and 26 pM with 3'-idT, label: 5'-32P, variant of 5169-4_26), the Kd came to 0.0006 nM. For the sequence “CCCTCCATCAGCCGTTCAAGTGCTGTAGGATTTAAATGGAATTGGAGGA [4867-15_48]”, in the data set on VEGF-121 (Homo sapiens) (P=Nap-dU, C3 spacer at 25), the Kd was over 100 nM. As for CGACAGCATGTATGCACATCT [5169-4_126], in data set [1] (NapdU at P, 2'-OMe 19,20,21, NB), the Kd is over 3.2 nM. Consider “CCCTCCATCAGCCGTTCAAGTGCTGTAGGATTTAAATGGAATTGGAGGA [4867-15_47]”, for which the Kd in the data set with VEGF-121 (Homo sapiens) (P=Nap-dU, C3 spacer at 24) is over 100 nM.

Regarding CTTACGACTACGTTACACGCGTTTATA [4149-8_33], the equilibrium dissociation constant (Kd) in data set [1] (all Z are BndU, rest DNA, SB18T, 37 C, label: 5'-32P, variant of 4149-8_2) was over 1000 nM. Regarding CGACAGCATGTATGCACATCT [5169-4_89], the Kd in data set [1] (NapdU at P, 2'-OMe 1-4,6,7,10-21, NB) is over 3.2 nM. Consider CGACAGCATGTATGCACATCT [5169-4_87], for which the Kd in data set [1] (NapdU at 9,13,19, 2'-OMe at C1,G2,C4,G6,C7,G10,A12,G14,C15,A16,C17,A18,C20 and 2'-OMe-NapU at 11,21, NB, no binding up to 3.2 nM, label: 5'-32P, variant of 5169-4_26) was over 3.2 nM. As for “AGCCGTTCAAGTGCTTGTAGGATTTAAATGGA [4867-31_79]”, the binding result in the data set with VEGF-121 (Homo sapiens) (P=Nap-dU, 2'-OMe U15) is listed as “no binding”. As for “CCCTCCATCAGCCGTTCAAGTGCTTGTAGGATTTAATGGAATTGGAGGA [4867-15_58]”, the Kd in the data set with VEGF-121 (Homo sapiens) (P=Nap-dU, C3 spacer at 35) is over 100 nM.

In the case of CGACAGCATGTATGCACATCT [5169-4_121], the Kd in data set [1] (NapdU at P, 2'-OMe 2,10,12, NB) is over 3.2 nM. As for “CCCTCCATCAGCCGTTCAAGTGCTTGTAGGTTTAAATGGAATTGGAGGA [4867-15_54]”, the Kd in the data set on VEGF-121 (Homo sapiens) (P=Nap-dU, C3 spacer at 31) is over 100 nM.

Consider “CCCTCCATCAGCCGTTCAAGTGCTTGTAGGATTAAATGGAATTGGAGGA [4867-15_57]”, for which the Kd with VEGF-121 (Homo sapiens) (P=Nap-dU, C3 spacer at 34) was over 100 nM.

Regarding “CCCTCCATCAGCCGTTCAAGTGCTTGTAGGATTTAATGGAATTGGAGGA [4867-15_60]”, the Kd in the data set on VEGF-121 (Homo sapiens) (P=Nap-dU, C3 spacer at 37) was over 100 nM. For “CCCTCCATCAGCCGTTCAAGTGCTTGTAGGATTAAATGGAATTGGAGGA [4867-15_55]”, the dissociation constant (Kd) in the data set on VEGF-121 (Homo sapiens) (P=Nap-dU, C3 spacer at 32) was over 100 nM. Turning to “CCCTCCATCAGCCGTCAAGTGCTTGTAGGATTTAAATGGAATTGGAGGA [4867-15_39]”, in the data set on VEGF-121 (Homo sapiens) (P=Nap-dU, C3 spacer at 16), the Kd is over 100 nM. For “CCCTCCATCAGCCGTTCAAGTGCTTGTAGGATTAAATGGAATTGGAGGA [4867-15_56]”, the Kd in the data set on VEGF-121 (Homo sapiens) (P=Nap-dU, C3 spacer at 33) was over 100 nM. For the sequence “AGCCGTTAAGTGCTTTAGATTTAAATGGA [4867-31_100]”, the binding result in the data set with VEGF-121 (Homo sapiens) (P=Nap-dU, C3 spacer at 8, 17, 20) is “no binding”.

For CGACAGCATGTATGCACATCT [5169-4_56], the Kd in data set [1] (NapdU at 9,11,19,21, dT at 13, NB up to 100 nM, text names position 12, label: 5'-32P, variant of 5169-4_26) was over 100 nM. Take CGACAGCATTATGCACATCT [5169-4_68]: the dissociation constant Kd in data set [1] (C3 spacer at 10, NapdU at 9,11,13,19,21, NB up to 100 nM, label: 5'-32P, variant of 5169-4_26) is over 100 nM. On to “CGACAGCATGTATGCACATCTCCGTTCAAGTGCTTGTAGGATTTAAATGG [5169-4_101]”, for which the Kd in data set [1] (PDGF-4Heg-VEGF, NapdU, 2'-OMe) is 0.0005 nM. Take CGACAGCATGTATGCACATCT [5169-4_122]: in data set [1] (NapdU at P, 2'-OMe 2,10,15, NB), the Kd was over 3.2 nM. Turning to “CCGTTCAAGTGCTTGTAGGATTTAAATGGCGACAGCATGTATGCACATCT [5169-4_94]”, the Kd in data set [1] (VEGF-5Heg-PDGF, NapdU, 2'-OMe) came out at 0.0005 nM. “AGCCGTTCAAGTGCTTGTAGGATTTAAATGGA [4867-31_89]”: the binding result with VEGF-121 (Homo sapiens) (P=Nap-dU, 2'-OMe U25) is reported as “no binding”. Regarding CGACAGCATGTATGCACATCT [5169-4_144], in data set [1] (NapdU at 9,11,13,19, 2'-OMe at C1,C7,G14,A16,A18 and 2'-OMe-NapU21, SB18T buffer (5 mM MgCl2), 37 C, Zorbax partition, label: 5'-32P, variant of 5169-4_26), the Kd amounted to 0.0005 nM. Consider CGACAGCATGATGCACATCT [5169-4_69], for which, in data set [1] (NapdU at P, C3 spacer at 11, NB), the Kd was over 100 nM.

For the sequence CGACAGCATGTATGCACATCT [5169-4_90], the Kd in data set [1] (NapdU at P, 2'-OMe 1-7,9-21, NB) was over 3.2 nM.

On to “AGCCGTTCAAGTGCTTGTAGGATTTAAATGGA [4867-31_88]”, for which the binding result in the data set on VEGF-121 (Homo sapiens) (P=Nap-dU, 2'-OMe U24) is “no binding”. On to “AGCCGTTCAAGTGCTTGTAGGATTTAAATGGA [4867-31_93]”, for which the binding result in the data set with VEGF-121 (Homo sapiens) (P=Nap-dU, 2'-OMe U29) is recorded as “no binding”. Consider CGACAGCATGTATGCACATCT [5169-4_129], for which the Kd in data set [1] (NapdU at P, 2'-OMe 10,11,12, NB) is over 3.2 nM. Turning to “AGCCGTTCAAGTGCTTGTAGATTTAAATGGA [4867-31_103]”, in the data set on VEGF-121 (Homo sapiens) (P=Nap-dU), the binding result was “no binding”. As for “AGCCGTTCAAGTGCTTGTAGGATTTAAATGGA [4867-31_65]”, in the data set on VEGF-121 (Homo sapiens) (2'-OMe A1, all P are NapdU, label: 5'-32P, variant of 4867-31_43), the binding result was “no binding”. Turning to “AGCCGTTCAAGTGCTTGTAGGATTTAAATGGA [4867-31_71]”, in the data set with VEGF-121 (Homo sapiens) (P=Nap-dU, 2'-OMe U7), the binding result was “no binding”. Regarding “CCCTCCATCAGCCGTTCAAGTGTTGTAGGATTTAAATGGAATTGGAGGA [4867-15_46]”, in the data set with VEGF-121 (Homo sapiens) (P=Nap-dU, C3 spacer at 23), the Kd is over 100 nM. As to CGACAGCATGTATGCACACT [5169-4_77], the Kd in data set [1] (NapdU at P, C3 spacer at 19, NB) was over 100 nM.

Regarding “AGCCGTTCAAGTGCTTGTAGGATTTAAATGGA [4867-31_82]”, the binding result in the data set on VEGF-121 (Homo sapiens) (P=Nap-dU, 2'-OMe U18) is reported as “no binding”. On to “CCCTCCATCAGCCGTTCAAGTGCTTGTAGGATTTAAAGGAATTGGAGGA [4867-15_61]”, for which the Kd in the data set with VEGF-121 (Homo sapiens) (P=Nap-dU, C3 spacer at 38) is over 100 nM. Consider CGACAGCATGTTGCACATCT [5169-4_70], for which the Kd in data set [1] (NapdU at P, C3 spacer at 12, NB) was over 100 nM. In the case of “CCCTCCATCAGCCGTTCAAGGCTTGTAGGATTTAAATGGAATTGGAGGA [4867-15_44]”, the Kd in the data set with VEGF-121 (Homo sapiens) (P=Nap-dU, C3 spacer at 21) was over 100 nM. For the sequence “AGCCGTTCAAGTGCTTGTAGGATTTAAATGGA [4867-31_70]”, the binding result in the data set on VEGF-121 (Homo sapiens) (P=Nap-dU, 2'-OMe U6) is listed as “no binding”. In the case of CGACAGCATGTATGCACATCT [5169-4_58], in data set [1] (NapdU at 9,11,13,19, dT at 21, NB up to 100 nM, label: 5'-32P, variant of 5169-4_26), the Kd is over 100 nM. Consider “AGCCGTTCAAGTGCTTTAGGATTTAAATGGA [4867-31_102]”, for which the binding result with VEGF-121 (Homo sapiens) (P=Nap-dU) is recorded as “no binding”. Take CGACAGCATGTATGCACATCT [5169-4_88]: the Kd in data set [1] (NapdU at P, 2'-OMe 1-4,6,7,10-12,14-18,20,21, NB) is over 3.2 nM. As for CGACAGCATGTATGCACATCT [5169-4_120], the Kd in data set [1] (NapdU at P, 2'-OMe 2,12,15, NB) was over 3.2 nM.

In the case of CGACAGCATGTATGCACATC [5169-4_79], the Kd in data set [1] (C3 spacer at 21, NapdU at 9,11,13,19, NB up to 100 nM, label: 5'-32P, variant of 5169-4_26) is over 100 nM. As to “CCCTCCATCAGCCGTTCAAGTGCTTGTAGGATTTAATGGAATTGGAGGA [4867-15_59]”, in the data set on VEGF-121 (Homo sapiens) (P=Nap-dU, C3 spacer at 36), the equilibrium dissociation constant (Kd) was over 100 nM. As to “AGCCGTTCAAGTGCTTGTAGGATTTAAATGGA [4867-31_87]”, the binding result in the data set with VEGF-121 (Homo sapiens) (P=Nap-dU, 2'-OMe U23) is on record as “no binding”. With “AGCCGTTCAAGTGCTTGTAGGATTTAAATGGA [4867-31_69]”, the binding result in the data set with VEGF-121 (Homo sapiens) (P=Nap-dU, 2'-OMe G5) is recorded as “no binding”. As to “CAGCCGTTCAAGTGCTTGTAGGATTTAAAT [4867-31_46]”, the binding result in the data set with VEGF-121 (Homo sapiens) (all P are NapdU, rest DNA, label: 5'-32P, variant of 4867-31_43) was “no binding”. “AGCCGTTCAAGTGCTTGTAGGATTTAAATGGA [4867-31_80]”: in the data set with VEGF-121 (Homo sapiens) (P=Nap-dU, 2'-OMe U16), the binding result is given as “no binding”.

The record behind these values is patent US20160177307.
